## Primary screen of a compound library

Chains of the proteins cited; added tags and fusions are not shown.
UniProt E9BF75, entry or part of it: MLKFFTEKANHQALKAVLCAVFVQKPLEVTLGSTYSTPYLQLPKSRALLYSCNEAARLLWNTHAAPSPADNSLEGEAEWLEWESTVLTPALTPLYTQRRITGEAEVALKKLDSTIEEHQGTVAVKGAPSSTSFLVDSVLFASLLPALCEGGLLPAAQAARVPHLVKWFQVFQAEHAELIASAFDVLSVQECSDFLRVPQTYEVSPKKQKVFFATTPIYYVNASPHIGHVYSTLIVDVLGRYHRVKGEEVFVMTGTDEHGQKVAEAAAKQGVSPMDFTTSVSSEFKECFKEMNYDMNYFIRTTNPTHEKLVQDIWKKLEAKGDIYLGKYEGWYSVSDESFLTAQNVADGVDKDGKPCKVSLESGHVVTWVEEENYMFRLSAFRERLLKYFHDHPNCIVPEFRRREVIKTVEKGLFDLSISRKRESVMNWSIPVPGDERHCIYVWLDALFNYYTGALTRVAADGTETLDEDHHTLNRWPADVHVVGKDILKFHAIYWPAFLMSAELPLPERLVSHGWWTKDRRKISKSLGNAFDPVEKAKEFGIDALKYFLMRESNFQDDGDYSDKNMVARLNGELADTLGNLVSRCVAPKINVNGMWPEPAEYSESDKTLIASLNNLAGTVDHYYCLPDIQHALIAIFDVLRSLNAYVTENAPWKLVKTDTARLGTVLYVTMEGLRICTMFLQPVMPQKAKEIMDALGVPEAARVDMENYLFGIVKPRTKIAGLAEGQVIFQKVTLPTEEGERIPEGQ

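Primary screen of methionyl-tRNA synthetase; the read-out is not stated. Target: Methionyl-tRNA synthetase (putative), Leishmania donovani (UniProt E9BF75). The test concentration is not given. The values are filed as inhibition. Size under these conditions: about 68,000 compounds, about 24 of them at 50% or above in at least one test.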

Results are percentages, as filed.
How 0% and 100% were set is not recorded. Most values in the screen are low, and negative values occur.
Compounds were drawn at random from those tested, without regard to their results.

With Cc1ncsc1C(=O)NCCCN1CCCCCC1=O the screen gave 14.86%.
With Cc1ccc(S(=O)(=O)N(C)Cc2nccs2)cc1N(C)C the screen gave -0.5495%.
With FC(F)Sc1ccc(NCc2nnc(C3CC3)o2)cc1 the screen gave 11.54%.
With COC(=O)N1CC(C)=C(C)CN1C(=O)Nc1cccc(Cl)c1 the screen gave 14.32%.
With CCOCc1nnc(NCc2ccsc2)o1 the screen gave 15.85%.
With Cc1cc(C)nc(CNC(=O)C(c2cccnc2)N2CCOCC2)n1 (centres unmarked) the screen gave 1.928%.
With CCc1nc2n(n1)CC(NCc1nc(-c3cccnc3)no1)CC2 (centres unmarked) the screen gave 9.278%.
With CC(Cc1cccc(F)c1)NCc1cnc(N2CCN(C)CC2)nc1 (centres unmarked) the screen gave -2.514%.
With Cc1ccc(C(C)N(C)Cc2nc3c(cnn3C)c(=O)[nH]2)c(C)c1 (centres unmarked) the screen gave 12.38%.
With CN(C)C(=O)c1cccc(NC(=O)N(CCO)Cc2ccsc2)c1 the screen gave 18.58%.
With Cc1ccc(CN2Cc3c(C(=O)N4CCN(C)CC4)nn(C)c3C2)s1 the screen gave 18.75%.
With O=C(NCc1cn2c(n1)CN(Cc1cccc(F)c1)CC2)C1CCC1 the screen gave 5.185%.
With O=C(c1n[nH]c(=O)c2ccccc12)N1CCCCC1c1ccn[nH]1 (centres unmarked) the screen gave 16.1%.
With CCN1CCC(=O)N(C)Cc2cc(F)ccc21 the screen gave 8.493%.
With CC(CN1CCCCCC1)NCc1cc(-c2ccco2)on1 (centres unmarked) the screen gave 11.76%.
With CCCn1nc(C)c(C(=O)N[C@@H]2CC[C@@H](N3CCCC3)[C@@H]2O)c1C the screen gave 11.49%.
With c1cncc(N2CCCC3(CN(Cc4cccs4)CCO3)C2)c1 (centres unmarked) the screen gave 5.724%.
With CC(NC(=O)Cc1cccs1)(C(N)=O)c1cccc(Cl)c1 (centres unmarked) the screen gave 15.92%.
With O=C(c1csc(-c2ccco2)n1)N1CCN2CCCCC2C1 (centres unmarked) the screen gave 14.51%.
With COc1nc2c(cc1C(=O)N(C)Cc1[nH]nc3c1CCC3)CCC2 the screen gave 7.483%.
With Cc1ccc2c(c1)SCC(=O)N2CC(=O)N1CCC[C@H]1c1nc(C)no1 the screen gave 10.6%.
With CC(C)CN1CCCn2nc(CNC(=O)CCN)cc2C1 the screen gave 19.51%.
With CCCc1cnc(C)nc1N1CCC(Cn2cc(CN(C)C)nn2)CC1 the screen gave 19.24%.
With Cc1nn(C)cc1S(=O)(=O)NC1(CN2CCOCC2)CCCCC1 the screen gave 16.77%.
With Cc1nc(CN2CCC23CCN(Cc2ccco2)CC3)cs1 the screen gave 23.9%.
With Cc1nn(C)cc1-c1ccnc(N(C)Cc2ccc(F)cc2)n1 the screen gave 18.18%.
With O=C(COCCc1ccccc1)N1CCCC(n2cccn2)C1 (centres unmarked) the screen gave 5.842%.
With CC(=O)c1cccc(NC(=O)NCCc2nnc[nH]2)c1 the screen gave 15.47%.
With COc1cc(S(=O)(=O)N2CCc3ccc(F)cc32)cc(C(=O)O)c1OC the screen gave 9.79%.
With O=C(Nc1cnc2n1CCCC2)c1cccc(OCC(F)(F)F)c1 the screen gave 6.452%.
With CCCc1cc(C(=O)NC(COC)c2ccnn2C)no1 (centres unmarked) the screen gave 6.811%.
With CCC(CN1CCCC1)NC(=O)Cc1c(C)[nH]c2cc(C)cc(C)c12 (centres unmarked) the screen gave 13.55%.
With CCC(C)NC(=O)CCNC(=O)Nc1ccc(-n2cncn2)c(F)c1 (centres unmarked) the screen gave 12.11%.
With CN(c1cccnn1)C1CCN(C(=O)c2n[nH]c3c2CCC3)CC1 the screen gave 14.73%.
With CC(C)c1nn(C)c(N2CCOCC2)c1CNCCS(C)(=O)=O the screen gave 9.202%.
With CS(=O)(=O)NCC1CCCCN1Cc1ccccc1C#N (centres unmarked) the screen gave 14.34%.
With Cc1cc(C)n(CC(C)CNC(=O)NCc2ccco2)n1 (centres unmarked) the screen gave 9.589%.
With CSCc1noc(CNC(=O)C2CCN(C(C)C)CC2)n1 the screen gave 7.614%.
With CCC(CO)N(Cc1cccnc1)C(=O)c1ccc(C)[nH]c1=O (centres unmarked) the screen gave 18.05%.
With CC(C)OCCOCc1cccc(NC(=O)NCc2ccccn2)c1 the screen gave 11.81%.

The first 3 entries again:

| structure | inhibition |
|---|---|
| `Cc1ncsc1C(=O)NCCCN1CCCCCC1=O` | 14.86% |
| `Cc1ccc(S(=O)(=O)N(C)Cc2nccs2)cc1N(C)C` | -0.5495% |
| `FC(F)Sc1ccc(NCc2nnc(C3CC3)o2)cc1` | 11.54% |

The values are deposited in ChEMBL (CHEMBL3988442, “University of Dundee, Small-Polar-MMV Screening Library” (2021)).